## Library screening results

Data taken from ChEMBL document CHEMBL3988442, “University of Dundee, Small-Polar-MMV Screening Library” (2021).

The filed quantity is “Percent Effect” (%).
How 0% and 100% were set is not recorded. Most values in the screen are low, and negative values occur.
This is an unselected part of the compounds tested.
Two or more numbers in one place are separate tests of the same structure; such repeats can differ widely.

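Viability assay of Plasmodium falciparum sporozoites; the read-out is not stated. The concentration is filed as 10 mM, unlikely as a test dose, so the dose is not known. Direction is inferred from retests: higher values go with lower viability. Strong results were mostly tested again. Size under these conditions: about 34,000 compounds, about 280 of them at 50% or above in at least one test.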

Compound,effect
O=C(O)C(F)(F)F.[H][C@@]12CN(CC(=O)N(C)C)C[C@]1([H])C(=O)N(Cc1cccc(F)c1)C2,-6.54
O=C(CN1CCC(c2cccc(F)c2)C1)NCc1ccco1 (centres undefined),15.66
Cn1cc2c(n1)C(COCC1CC1)CN(Cc1ccccn1)C2 (centres undefined),-6.629
O=C(CC1CC1)NCc1cn2c(n1)CN(C(=O)C1CCOCC1)CC2,21.21
O=C(O)C(F)(F)F.[H][C@@]12CO[C@H](CNS(C)(=O)=O)[C@]1([H])CCN(Cc1ccsc1)C2,-2.193
COc1c(C2CCCN2Cc2cc(C)no2)c(C)nn1C (centres undefined),-9.44
O=C(Cc1ccn[nH]1)N1CCc2cc(Br)sc2C1,8.246
Cc1cc(-c2nn(C)c(Cl)c2CN2CCOC(C(=O)O)C2)no1 (centres undefined),-3.418
Cn1nnc2cc(C(=O)NS(=O)(=O)c3ccc(F)cc3)ccc21,-8.788
CN(C)Cc1ccnc(C2CCCN2Cc2ccncc2)n1 (centres undefined),-9.597
Cn1cnc2c1CCN(Cc1csc(-c3ccsc3)n1)C2,58.75 and 42.56 and 36.07
CC(=O)N1CCN(CCCOc2ccccc2F)CC(C(N)=O)C1 (centres undefined),1.901
Cc1cc(N(C)C)nc(C2CCCN2)n1.Cl.Cl (centres undefined),-3.06
CC(C)Cc1noc(CN2CCOC(Cn3cncn3)C2)n1 (centres undefined),6.433
CCc1ncncc1C(=O)N1CCCN(Cc2ccc(C)cc2)CC1,-9.698
CC(C)c1nc(C2CCCN(C(=O)c3ccc4[nH]nnc4c3)C2)no1 (centres undefined),4.524
CNc1cc(C2CN(Cc3coc(C)n3)CCO2)nc(C)n1 (centres undefined),8.757
Cc1ccc(N2CC[C@H](O)[C@@H]2Cc2cnn(C)c2)nn1,-5.596
O=C(O)C(F)(F)F.O=C(O)C(F)(F)F.[H][C@@]12CN(CC3CC3)C[C@]1([H])[C@@H](OC)CCN2S(=O)(=O)c1cccnc1,4.381
O=C1c2cccnc2OC(CN2CCOCC2)CN1C1CCC1 (centres undefined),10.05
Fc1cccc(Cl)c1Cn1ncnc1CSCCN1CCCC1,-5.385
O=C(CN1CCC(c2cc(=O)n3c(n2)CCCCC3)C1)N1CCCCC1.O=C(O)CC(O)(CC(=O)O)C(=O)O (centres undefined),10.89
CCNC(=O)C1CN(Cc2c(-c3cc(C)on3)nn(C)c2Cl)CCO1 (centres undefined),-10.25
O=C(O)c1csc(S(=O)(=O)Nc2c(F)cccc2-n2cccn2)c1,-14.95
CN(C)C(=O)CN1CCC2(COCc3cnc(-c4cccnc4)nc32)C1.O=C(O)C(F)(F)F.O=C(O)C(F)(F)F (centres undefined),3.647
Fc1ccc(Oc2ccc(CNCC3CNc4ccnn4C3)cn2)cc1 (centres undefined),5.725
Cn1ccnc1CN1CCN(CC(O)c2cc(F)ccc2F)CC1 (centres undefined),8.197
Cn1ccnc1CCNS(=O)(=O)c1cccc(Br)c1,-5.089
Cc1ccc2c(c1)nc1n2[C@@H](CNC(=O)c2cncnc2)COC1,5.624 and 5.197
CC(=O)N1CCC(N2CCOC[C@H]2c2nc(C(C)(C)C)c[nH]2)CC1,-8.575 and -16.15
O=C(COc1ccccc1)NCCNC(=O)c1scnc1Cl,8.741
COCc1cnc2n1CCN(C(=O)c1ocnc1C)C2C (centres undefined),4.866
Cc1cccc(C(=O)N(C)Cc2cc(Br)cs2)n1,-3.72
CN1CCCC1CNC(=O)CCCOc1cccc(F)c1 (centres undefined),7.977
CCc1cccc(N2CCC(NC(=O)c3ccc(=O)[nH]n3)CC2)c1,-8.353
c1cnnc(NCC2CN(Cc3cccc4c3OCCO4)CCO2)c1 (centres undefined),-5.724
[H][C@@]12C[C@H](C(=O)N(C)C)[C@@]([H])(CN(S(=O)(=O)CCC)C1)O2,16.67
Cc1c(Cl)ccc2ccc(NC(CO)CO)nc12,-22.63
CCN1CCN(CCNC(=O)c2ccn(-c3ccc(F)cc3)n2)CC1,2.318
Cn1cc(NS(=O)(=O)c2ccc3c(c2)CCCC3)ccc1=O,9.891
CC1CCCCN1CCNC(=O)c1scnc1Cl (centres undefined),-0.8079
O=C(O)C(F)(F)F.O=C(O)C(F)(F)F.[H][C@@]12CN(Cc3cnn(C)c3)C[C@]1([H])OCCN2c1ccc(C)nn1,3.657
Cc1nc(CNC(=O)NCC(O)c2ccc(F)c(F)c2)cs1 (centres undefined),13.78 and -86.66 and -87.22
Cc1ccccc1-c1noc(CN2CC(n3cccn3)C2)n1,-26.31
c1coc(CNCC2Cn3nncc3CO2)c1 (centres undefined),10.86
O=C(CSc1ccc(F)c(F)c1)NS(=O)(=O)c1ccc2c(c1)OCCO2,2.738
CCNC(=O)CNCc1c(C(C)C)nn(C)c1N1CCOCC1,6.024
COCCn1cc(NC(=O)NC(C)Cc2c(F)cccc2F)cn1 (centres undefined),3.028
O=C(O)C(F)(F)F.O=C(O)C(F)(F)F.[H][C@]12CCC[C@@]1(COc1ccccn1)CN(C(=O)c1ccc(C)cn1)C2,-11.19
Cc1nc(C)n(CC2CCCCN2CC(=O)Nc2nncs2)n1 (centres undefined),-9.442
CC(=O)N(C)Cc1ncn2c1CN(C(=O)C1CCCO1)CCC2 (centres undefined),9.958
Cc1nc(NC2CCN(S(=O)(=O)c3ccccc3)CC2)[nH]c(=O)c1C,11.1
Cc1cnn(CC2CCCN2CC(=O)Nc2cc(C)nn2C)c1 (centres undefined),-2.133
c1ccc(Cc2noc(CN3CCOC(Cn4cccn4)C3)n2)cc1 (centres undefined),-2.831
NC(=O)Cn1cc(NC(=O)N2CCN(c3ccc(F)cc3)CC2)cn1,14.37
CCn1c(C)nc2cc(NC(=O)CC3CCCCO3)ccc21 (centres undefined),43.93 and 40.46 and 65.03
CN1C[C@H](O)C[C@H]1c1nc(-c2ccc3c(c2)OCO3)no1,-17.74 and -21.95
CN(CCOc1cccc(Cl)c1)Cc1nnc(C(C)(C)C)o1,-8.788
Cc1cc(C(=O)N2CCc3ncnc(-c4cnn(C)c4)c3CC2)no1,-9.386
CCCN1CC(C(=O)Nc2ccccn2)CC1=O (centres undefined),-6.941
CC(C)N1CC(C(=O)NCc2cccnc2-n2cccn2)CC1=O (centres undefined),3.68
CN1CCN(C2CCN(CCOc3ccccc3F)CC2)C1=O,-5.335
CC1CCC(NCCNC(=O)c2cccs2)CC1 (centres undefined),5.391
Cc1nn(C)c(C)c1C1CCCN1C(=O)c1cnc2n[nH]c(C)c2c1 (centres undefined),1.921
Cc1cc(C)n(CCCn2cncc2-c2ccc3c(c2)CC(C)N3C)n1.Cl (centres undefined),10.72

For reference, 6 entries once more:

* O=C(CC1CC1)NCc1cn2c(n1)CN(C(=O)C1CCOCC1)CC2 : 21.21%
* Cc1nc(C)n(CC2CCCCN2CC(=O)Nc2nncs2)n1 (centres undefined) : -9.442%
* Cc1ccc2c(c1)nc1n2[C@@H](CNC(=O)c2cncnc2)COC1 : 5.624% and 5.197%
* CNc1cc(C2CN(Cc3coc(C)n3)CCO2)nc(C)n1 (centres undefined) : 8.757%
* CC(=O)N(C)Cc1ncn2c1CN(C(=O)C1CCCO1)CCC2 (centres undefined) : 9.958%
* Cn1cc(NS(=O)(=O)c2ccc3c(c2)CCCC3)ccc1=O : 9.891%